Measured data: PubChem BioAssay AID1259254 (NCATS, 2017)

Purpose: 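Gene knock-downs that lead to re-replication, shown by excess G2 DNA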 (primary screen)
Cell system: human HCT116 colorectal cancer cells
Knock-down reagent: single siRNA against human genes
Duration: 3 days
Detection: 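Imaged Hoechst DNA stain sorts each cell into a cycle phase by DNA amount; per plate, G2 fraction set to 0% for non-targeting and 100% for GMNN siRNA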
Reading the numbers: G2 robust z-score and G2 cells, % of GMNN control: higher = more G2 cells, more excess DNA replication; raw share of cells in G2: higher = larger share of cells with G2 DNA content
Call rule: 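An siRNA counts as active if its G2 robust z-score lies at least 5 MADs above the screen median; here such calls match roughly 38% of GMNN control or more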
This is one part, drawn at random, of about 59,000 reagents. In the full data, about 1,550 (2.6%) were called active. 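G2 share is only a proxy for re-replication; each gene was hit by three separate siRNAs, and active genes were retested.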 The raw values are shown without normalisation. The numbers tell different reagents against one gene apart. Reagent sequences are not shown. Not given: the amount of reagent.

no.	gene knocked down	reagent no.	G2 robust z-score	G2 cells, % of GMNN control	raw share of cells in G2 (%)	activity call
1	JAGN1	1	1.57	14	8.77	inactive
2	JAGN1	2	-0.167	1.79	3.99	inactive
3	JAGN1	3	-0.663	-1.7	1.89	inactive
4	ALK	1	0.614	7.29	8.02	inactive
5	ALK	2	2.93	23.6	13.4	inactive
6	ALK	3	-1.2	-5.51	2.08	inactive
7	HBZ	1	-0.946	-3.69	3.7	inactive
8	HBZ	2	-1.07	-4.59	3.94	inactive
9	HBZ	3	-0.462	-0.284	4.1	inactive
10	BHMT	1	-1.27	-5.98	2.68	inactive
11	BHMT	2	-1.03	-4.3	3.54	inactive
12	BHMT	3	1.71	15	9.57	inactive
13	ZDHHC6	1	0.794	8.55	9.19	inactive
14	ZDHHC6	2	-0.55	-0.903	4.03	inactive
15	ZDHHC6	3	-1.04	-4.38	2.63	inactive
16	FAM177A1	1	1.16	11.2	6.66	inactive
17	FAM177A1	2	4.32	33.4	15.8	inactive
18	FAM177A1	3	0.211	4.46	4.77	inactive
19	CEBPA	1	0.0384	3.24	6.82	inactive
20	CEBPA	2	0.793	8.55	7.22	inactive
21	CEBPA	3	1.94	16.6	10	inactive
22	NUDT14	1	-0.591	-1.19	3.95	inactive
23	NUDT14	2	0.211	4.46	4.84	inactive
24	NUDT14	3	1.23	11.6	8.57	inactive
25	RPS2P12	1	0.737	8.15	6.87	inactive
26	RPS2P12	2	1.5	13.5	8.15	inactive
27	RPS2P12	3	2.84	22.9	9.58	inactive

The list goes on; the last 6 above are carried over.
no.	gene knocked down	reagent no.	G2 robust z-score	G2 cells, % of GMNN control	raw share of cells in G2 (%)	activity call
22	NUDT14	1	-0.591	-1.19	3.95	inactive
23	NUDT14	2	0.211	4.46	4.84	inactive
24	NUDT14	3	1.23	11.6	8.57	inactive
25	RPS2P12	1	0.737	8.15	6.87	inactive
26	RPS2P12	2	1.5	13.5	8.15	inactive
27	RPS2P12	3	2.84	22.9	9.58	inactive
28	HERC2	1	1.04	10.3	8.87	inactive
29	HERC2	2	-0.821	-2.81	3.26	inactive
30	HERC2	3	-0.561	-0.977	4.36	inactive
31	LRRC37BP1	1	1.2	11.4	7.46	inactive
32	LRRC37BP1	2	-1.01	-4.12	1.74	inactive
33	LRRC37BP1	3	3.3	26.2	13.7	inactive
34	TBC1D29P	1	1.3	12.1	8.97	inactive
35	TBC1D29P	2	0.464	6.23	6.64	inactive
36	TBC1D29P	3	1.14	11	7.14	inactive
37	LRP5	1	-0.903	-3.39	2.08	inactive
38	LRP5	2	-0.0866	2.36	6.27	inactive
39	LRP5	3	1.09	10.7	9.69	inactive
40	CDNF	1	-0.0627	2.53	4.6	inactive
41	CDNF	2	-0.219	1.43	3.96	inactive
42	CDNF	3	-0.654	-1.63	2.56	inactive
43	COPG1	1	4.01	31.2	14.6	inactive
44	COPG1	2	2.51	20.6	10.9	inactive
45	COPG1	3	1.83	15.8	12.7	inactive
46	SAPCD1	1	0.232	4.6	5.48	inactive
47	SAPCD1	2	-0.0948	2.3	4.43	inactive
48	SAPCD1	3	2.87	23.2	14.4	inactive
49	PHOSPHO2	1	-0.512	-0.638	5.63	inactive
50	PHOSPHO2	2	0.0828	3.55	5.58	inactive
51	PHOSPHO2	3	0.223	4.53	6.73	inactive
52	HDAC9	1	1.1	10.7	9.09	inactive
53	HDAC9	2	-0.662	-1.69	2.62	inactive
54	HDAC9	3	0.308	5.13	7.14	inactive
55	CMPK1	1	0.645	7.51	7.92	inactive
56	CMPK1	2	-0.514	-0.651	4.95	inactive
57	CMPK1	3	3.69	28.9	12.9	inactive
58	MGST2	1	-0.686	-1.86	4.73	inactive
59	MGST2	2	-0.0786	2.41	6.29	inactive
60	MGST2	3	-1.25	-5.8	1.28	inactive
61	NHP2	1	10.4	76.2	33.8	active
62	NHP2	2	1.1	10.7	8.59	inactive
63	NHP2	3	0.582	7.06	5.39	inactive
64	FKBP4	1	-0.172	1.75	4.28	inactive
65	FKBP4	2	-0.897	-3.35	3.99	inactive
66	FKBP4	3	0.589	7.11	7.82	inactive
67	SH3BP4	1	0.589	7.11	7.8	inactive
68	SH3BP4	2	0.401	5.79	7.3	inactive
69	SH3BP4	3	-0.506	-0.592	3.49	inactive
